This is an account of results in publication PMC6109075, “Characterization of membrane penetration and cytotoxicity of C9orf72-encoding arginine-rich dipeptides” (Scientific Reports, 2018).

Results are given in words; binding and its absence hold for the method and conditions named. Some results given as binding are weak or reduced against the parent protein; the word gives no strength. Sequences can lack the tags named with a protein.

The experiment has as its target T1, HA-tagged (PR)20 peptide.
T1 chain: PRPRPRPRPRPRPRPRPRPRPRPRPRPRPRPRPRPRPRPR
Nature of the experiment: cross-linking; HA-(PR)20 mixed with 10 mM adenine, adenosine, ribose or ribose-3' phosphate, with or without 10 uM poly-A RNA, 5 min at room temperature; 5 mM DSP for 30 min; SDS-PAGE and Coomassie blue staining; both purified. The following applies: remark: other sources report otherwise.

B1: HA-tagged (PR)20 peptide (peptide)
peptide: PRPRPRPRPRPRPRPRPRPRPRPRPRPRPRPRPRPRPRPR
In the case of B1, the binding entry is recorded as “binds”.
